The target of experiment [1] is HSV-2 glycoprotein D fused to flag tag (HSV-2) (UniProt Q69467). The experiment in a line: co-IP; 293T cells cotransfected with gD-flag and a tetherin mutant; precleared lysates precipitated with anti-flag antibody (isotype control antibody beside it), western blot for tetherin; Pierce Crosslink Immunoprecipitation Kit. A general note: Immunoblotting shows a protein as a band on a membrane.

The chains behind the UniProt entries cited, without tags or fusion partners. Where a name states a change or a piece, a line headed by the entry shows the natural chain unless it says otherwise. Residues count along the entry.
UniProt Q69467, residues 26-393: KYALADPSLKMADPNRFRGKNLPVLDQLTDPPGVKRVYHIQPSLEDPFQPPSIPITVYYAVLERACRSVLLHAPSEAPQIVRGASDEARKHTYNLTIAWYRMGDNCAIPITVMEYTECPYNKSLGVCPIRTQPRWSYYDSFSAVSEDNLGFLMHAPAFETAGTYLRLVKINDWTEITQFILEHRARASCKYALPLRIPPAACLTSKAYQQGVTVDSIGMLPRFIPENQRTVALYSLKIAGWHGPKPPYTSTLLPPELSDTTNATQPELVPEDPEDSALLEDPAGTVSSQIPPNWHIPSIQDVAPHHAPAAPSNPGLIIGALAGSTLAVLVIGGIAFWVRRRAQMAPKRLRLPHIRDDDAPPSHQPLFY
UniProt Q10589: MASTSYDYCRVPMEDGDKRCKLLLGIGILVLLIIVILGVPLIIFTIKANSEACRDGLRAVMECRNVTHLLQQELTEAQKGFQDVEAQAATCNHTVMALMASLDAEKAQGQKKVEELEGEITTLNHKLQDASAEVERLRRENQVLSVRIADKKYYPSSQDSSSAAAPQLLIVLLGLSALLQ

Experiment [2] addresses tetherin deletion mutant delCT (20-180 aa of human tetherin) (human) (UniProt Q10589). The experiment in a line: co-IP; 293T cells cotransfected with gD-flag and a tetherin mutant; lysates precipitated with the rabbit polyclonal antibody against tetherin, western blot with the flag antibody; Pierce Crosslink Immunoprecipitation Kit.

Results are given in words; binding and its absence hold for the method and conditions named. Binding seen in cells or lysates may run through a third protein. A result given as binding can be weak or reduced; the word gives no strength.

With “tetherin deletion mutant delCT (20-180 aa of human tetherin) (from UniProt Q10589) (domain or fragment)”, in experiment [1], the binding result was “binds”.

“HSV-2 glycoprotein D fused to flag tag (from UniProt Q69467 26-393)”: in experiment [2], the binding entry was “binds”.

The record behind these values is publication PMC5024446.
